Data published in patent US6955818B1, “Pour-on formulations” (Eli Lilly and Company, priority 1999, dated 2005).
Some entries share one result that the patent states for a list of compounds.

Assay: Example 12: physical characteristics and freezing points of solvents and solvent combinations
Assay type: physicochemical
Settings: vehicle alone
Procedure: The physical characteristics of various individual solvents and solvent combinations were determined.

SMILES	freezing point [°C]
CCCCCCCCCCCCCCCC(=O)OCCCCCCCC [OP, octyl palmitate]	3 to −4
CCCCCCCCCCCCCCCCCC(=O)OCCCCCCCC [OS, octyl stearate]	3 to −4
